Consider five molecules from article PMC2935449.

Protein sequences, listed by entry. Tags and fused reporters are not part of them.
UniProt P41878: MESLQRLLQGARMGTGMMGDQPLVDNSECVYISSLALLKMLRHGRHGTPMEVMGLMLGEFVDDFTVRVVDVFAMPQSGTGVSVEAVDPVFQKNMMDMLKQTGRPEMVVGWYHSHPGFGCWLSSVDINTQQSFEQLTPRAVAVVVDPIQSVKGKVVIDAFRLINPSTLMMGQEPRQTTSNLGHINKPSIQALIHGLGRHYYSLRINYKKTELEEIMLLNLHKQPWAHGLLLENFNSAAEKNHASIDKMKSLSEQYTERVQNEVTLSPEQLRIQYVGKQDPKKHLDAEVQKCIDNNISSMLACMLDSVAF
UniProt Q9P7H8: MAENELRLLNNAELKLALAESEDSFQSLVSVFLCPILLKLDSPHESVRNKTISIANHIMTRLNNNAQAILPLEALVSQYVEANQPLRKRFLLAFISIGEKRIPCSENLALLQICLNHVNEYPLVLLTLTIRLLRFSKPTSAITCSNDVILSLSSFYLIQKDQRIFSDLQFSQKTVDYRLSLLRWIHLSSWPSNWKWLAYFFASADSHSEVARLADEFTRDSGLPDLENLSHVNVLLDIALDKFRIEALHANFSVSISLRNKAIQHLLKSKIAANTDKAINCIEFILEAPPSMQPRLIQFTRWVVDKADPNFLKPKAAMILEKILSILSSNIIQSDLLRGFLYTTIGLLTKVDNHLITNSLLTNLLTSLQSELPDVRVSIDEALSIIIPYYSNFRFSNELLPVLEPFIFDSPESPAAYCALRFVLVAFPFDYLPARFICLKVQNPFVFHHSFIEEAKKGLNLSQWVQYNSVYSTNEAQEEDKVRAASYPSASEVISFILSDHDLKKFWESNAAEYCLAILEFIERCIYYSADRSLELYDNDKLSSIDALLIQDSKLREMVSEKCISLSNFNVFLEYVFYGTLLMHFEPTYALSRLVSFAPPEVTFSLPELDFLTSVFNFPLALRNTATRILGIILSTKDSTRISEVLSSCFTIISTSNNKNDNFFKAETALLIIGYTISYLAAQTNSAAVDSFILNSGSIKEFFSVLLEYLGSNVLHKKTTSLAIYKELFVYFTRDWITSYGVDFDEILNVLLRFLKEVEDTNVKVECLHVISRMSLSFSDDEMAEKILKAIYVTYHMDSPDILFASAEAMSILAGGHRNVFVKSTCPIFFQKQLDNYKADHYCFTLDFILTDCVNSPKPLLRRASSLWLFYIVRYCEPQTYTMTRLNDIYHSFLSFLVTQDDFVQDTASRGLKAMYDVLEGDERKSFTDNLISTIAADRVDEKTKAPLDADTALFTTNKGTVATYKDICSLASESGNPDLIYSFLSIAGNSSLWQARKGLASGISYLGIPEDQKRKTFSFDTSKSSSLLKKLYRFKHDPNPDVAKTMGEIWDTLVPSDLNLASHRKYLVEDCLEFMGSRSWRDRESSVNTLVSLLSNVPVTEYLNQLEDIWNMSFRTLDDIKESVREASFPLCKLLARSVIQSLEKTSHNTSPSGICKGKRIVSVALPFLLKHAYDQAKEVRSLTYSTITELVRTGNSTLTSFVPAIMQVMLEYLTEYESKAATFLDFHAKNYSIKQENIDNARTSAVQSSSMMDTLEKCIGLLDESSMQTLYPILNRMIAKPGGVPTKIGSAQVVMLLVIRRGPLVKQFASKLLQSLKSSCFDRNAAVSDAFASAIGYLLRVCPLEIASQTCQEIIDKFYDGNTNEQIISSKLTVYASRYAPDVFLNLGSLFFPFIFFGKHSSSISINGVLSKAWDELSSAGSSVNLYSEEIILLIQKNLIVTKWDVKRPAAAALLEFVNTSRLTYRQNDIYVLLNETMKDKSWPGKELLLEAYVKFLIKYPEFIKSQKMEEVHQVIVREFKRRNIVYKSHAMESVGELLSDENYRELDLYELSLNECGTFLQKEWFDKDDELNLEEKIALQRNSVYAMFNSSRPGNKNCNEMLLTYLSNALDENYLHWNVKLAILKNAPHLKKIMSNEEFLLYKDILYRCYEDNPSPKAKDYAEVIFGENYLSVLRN

In assay [1] the target is Rpn11-TAP (S. pombe) (UniProt P41878). As to the kind of experiment: affinity purification with mass spectrometry; bait endogenously TAP-tagged at its C-terminus, tandem affinity purification from native S. pombe lysate, co-purified proteins identified by 2D LC-MS/MS; duplicates, only proteins found in both replicates.
For assay [2], the target named is T1, Uch2-TAP (S. pombe) (UniProt Q9UUB6).
T1 sequence: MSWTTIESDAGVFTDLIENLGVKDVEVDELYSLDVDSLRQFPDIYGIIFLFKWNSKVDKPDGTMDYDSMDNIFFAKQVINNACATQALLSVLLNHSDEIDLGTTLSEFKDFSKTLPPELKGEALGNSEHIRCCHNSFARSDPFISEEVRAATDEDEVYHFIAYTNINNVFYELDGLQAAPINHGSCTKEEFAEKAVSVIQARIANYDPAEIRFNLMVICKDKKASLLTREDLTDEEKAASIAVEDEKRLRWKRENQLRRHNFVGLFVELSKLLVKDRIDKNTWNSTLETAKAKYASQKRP
Described as above.

Assay [3] has as its target T2, TAP-Ubp1 (S. pombe) (UniProt Q9USM5).
T2 sequence: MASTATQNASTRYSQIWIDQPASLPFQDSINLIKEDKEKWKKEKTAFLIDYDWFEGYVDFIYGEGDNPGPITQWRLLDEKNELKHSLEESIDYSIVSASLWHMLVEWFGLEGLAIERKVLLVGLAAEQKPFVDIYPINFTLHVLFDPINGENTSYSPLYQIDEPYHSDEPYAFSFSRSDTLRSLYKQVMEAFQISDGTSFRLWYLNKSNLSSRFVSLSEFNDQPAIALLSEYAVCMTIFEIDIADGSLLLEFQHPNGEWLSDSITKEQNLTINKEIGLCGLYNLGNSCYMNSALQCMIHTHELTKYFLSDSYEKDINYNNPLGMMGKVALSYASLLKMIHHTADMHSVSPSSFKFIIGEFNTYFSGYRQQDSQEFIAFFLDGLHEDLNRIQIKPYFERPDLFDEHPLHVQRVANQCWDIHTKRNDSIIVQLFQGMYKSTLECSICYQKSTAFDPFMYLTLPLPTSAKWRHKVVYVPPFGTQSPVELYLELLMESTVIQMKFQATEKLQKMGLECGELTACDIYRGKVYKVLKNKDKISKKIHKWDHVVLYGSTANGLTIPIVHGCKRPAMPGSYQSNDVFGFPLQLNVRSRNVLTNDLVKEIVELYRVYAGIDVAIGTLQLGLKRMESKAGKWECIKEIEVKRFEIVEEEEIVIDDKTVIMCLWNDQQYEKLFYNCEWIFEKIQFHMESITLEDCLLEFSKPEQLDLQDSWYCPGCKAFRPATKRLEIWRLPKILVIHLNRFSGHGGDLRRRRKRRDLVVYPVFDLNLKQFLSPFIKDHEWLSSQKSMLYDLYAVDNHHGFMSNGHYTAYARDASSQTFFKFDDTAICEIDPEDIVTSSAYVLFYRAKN
Put plainly: affinity purification with mass spectrometry; bait N-terminally TAP-tagged, expressed at low levels from the nmt81 promoter (pREP81-TAP), tandem affinity purification from native S. pombe lysate, 2D LC-MS/MS; duplicates.

No constants are given. Whether binding was seen depends on the method and setting. In cells and extracts the contact can be indirect. Here binding means that the protein was enriched with, or labelled near, the bait; the list need not be complete. For some of these results: No binding means not detected with the bait.

On to “Ecm29 (SPAC1782.01) (from UniProt Q9P7H8 1-1679)”, for which the binding result in assay [1] and in assay [2] was “binds” throughout.

B1: Ssr1 (protein, UniProt O13788 1-527)
chain: MSNVTENKHDLHENGVPDSAQPMELDVSKKEDTEPEVRDEAKEFLLSQLPQVEVPEWAQWFDFSKVHEIEKKQNPEFFDGKNTSKTPEVYKEYRDFMISTFRLNSKVYLTFTACRRNLAGDVCAVLRVHRFLEQWGLINYNVNPDTRPSKIGPPSTSHFQILADTPRGLVPLLPPPSSSIPRSKAVTIEDPSIVRTNIYDPSLDDVLKGKGSTPNQKPSLSNLHENNIDQSDSPQHCYCCGNKFNESYYQSQTAQKYNVCISCYQQNRFPSPTTIADYKEVAIQNKIEDDDTWTAQELVLLSEGVEMYSDDWAKVASHVNTKSVEECILKFLNLPSSDKALFKMDKVHTNPVVDSLQGKNPILSVVSFLAKMVPPSSFTQKSSAKEEESDKVKGESVYPKPESESYDVEMNGKSLEDSDSLSELYLTNEEKKMASIIKDSVNVQIKLIESKLSHFDYLDQHIRLKSQELDAFAQATYREKLYMKRECQNARKKIEQQLQSKDTAANGLPVQSSAETSVIPASSMSPS
For B1, the binding entry in assay [3] is “binds”.

B2: Rpn1302 (SPCC16A11.16c) (protein, UniProt Q9USM1 1-388)
chain: MESVFGRVRNETSERGKYGLVSVKAGKLQRKPGTNILQADHRKGVIYMQMASDELLHFYWKERARVSREVEDDYIIFPEEAEFIKIDECTTGRVYALKFKSSSQIHFYWMQEYSDEKDKETASLINQLIADPVNTTRTINSHNNSSSRGTDDSSTSQLLQLFGAASQDALQDFNWEVLSPTAEAPAILPRFPNVNESANMYRASSESNLNGPHATAGENGEDHEEATASPLDENIDYTHSRTLELLEQLQPLILNETTFVEPFSIDRESHRVITHPRVYPKIFPHSPSDLLRISGRAELSENRDFFKHLSSLMEAVAKPESESLREICNLSLEQVQSASGAELFLHALYDRLVNEGVIVISHITQEGSDGEVEEEGDVEMRESNEKDE
Regarding B2, the values for the binding result in assay [1] and in assay [2] were “binds” and “no binding”, respectively.

B3: Sif3 (protein, UniProt Q09877 1-472)
chain: MSTKDKLNLPPKRTINTRLSTPVHIPPPINSESTRITPQHGSPPRFGDHRISAAQGLFQRRRNARKIDHPLGWFLKNRHAAAHIPQRTTKTSQKLVLLPENHAVNSFNEEESNYEDLLTPSDAYNLIKLENLPRDKREELGFPRATAYCVCEAFQLPKVKHFLKHYHKVRAKKYDEVLYAVYHLPLVYGRSESCRVSSGPAPDDMPSSASNHNQKHLDSDKPDNENFDSHIISQLYRISEIFVFSYGVVVFWNFSLSQEKDILADLTFGGDNSLMVKPLAEEECEIEDLHFHYAPNTKRPRIYNDMIHIPSADNKMKLAMSHALAQSVKLSRFELRTDVTMNSALFYPKKLALYGHLGLSRVEVVRMSGHLFQLRVDVNLISNILDTPDFLWDSEPLLLPLYTAFREYLEIGPRTNVLNRRCKVIFDMLDIFGKSSADRKMNSITWIIIILISLFVIIFTLEVILRLRWAHR
Turning to B3, in assay [3], the binding entry is “binds”.

B4: Sif2 (protein, UniProt O74446 1-382)
chain: MSNRIGPQRSTKTAAKLRLLPSTEEFDDFRRQDTGREVYSQIPQIEGSTAKRDAEHLGKRHREFLPRVTAYCTCDTFRVDLLFKFFQSRRSSHKTRPKQFDECIYSPYSYNNEETTDLLPDTLESSRGTLNRESSQESLQSIFEESGLDRNQPLFREVFCFTYGVVVLWGYTIDEEHRFLRELGRFEIEKLKIEDMEVEEFNYYITTLYQPRIFNDFIALRDASNYMIRLSISHAIAQSVKISLFEELVNETIDATKDTPQMIAETGRVNLKREEIMMAVGQLFILRININLQGSVLDSPELMWTEPQLEPIYTAARSYLEINQRVALLNQRVEVIGDLLSMLKEQITHTHDESLEWIVVILMGLLVLIALFSIVVDWKLFQ
Consider B4, for which the binding entry in assay [3] is on record as “binds”.
